In PubChem BioAssay AID540303 (National Center for Advancing Translational Sciences (NCATS), 2011):
In all, about 330,000 compounds went through this assay and about 1,000 (0.3%) were called active. The shares of active, inactive and inconclusive entries below differ from those in the screen. Calls come from the whole dose curve; as a rule, active = well fitted inhibition curve with a large enough effect; inconclusive = small, poorly fitted or top-dose-only effect; inactive = no such curve, though single readings can be large or run the other way; tested in mouse RAW 264.7 cells. Potencies of inconclusive entries are doubtful fits and often do not repeat.

assay: qHTS for Inhibitors of Cell Surface uPA Generation; conditions: cell surface uPA generation assay; series mostly up to 38.3 µM; note: nearly all actives have a fitted effect of over 55% in size
In short: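 Murine RAW 264.7 cells are treated for 24 h with compound up to 38.3 uM final. Cell ATP, measured by ATP-Lite, remains high if blocking the uPA cascade prevents LF from reaching the cytoplasm.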
Potency is the fitted concentration of half-maximal effect.

Compound | Potency
COc1cc(SC#N)ccc1N=Cc1c(C)[nH]n(-c2ccc(C)c(C)c2)c1=O | inconclusive: 8.91 µM [inhibitor, partial curve, poor fit]
Cc1cccc(NC(=S)N(CCN2CCOCC2)Cc2cc3cc4c(cc3[nH]c2=O)OCCO4)c1 | inconclusive: 28.2 µM [inhibitor, single point]
Cc1nc(SCC(=O)O)c(C#N)c2c1CCCC2 | inconclusive: 3.16 µM [inhibitor, partial curve, poor fit]
COc1cccc(-c2c(C(=O)N/N=C/c3ccc(C)o3)nnn2-c2nonc2N)c1 | inactive
Cn1cc(S(=O)(=O)N2CCc3ccccc32)cc1C(=O)Nc1ccc(Cl)cc1 | inconclusive: 14.1 µM [inhibitor, single point]
COc1cccc(NC(=S)N(CCc2c(C)[nH]c3ccccc23)Cc2ccco2)c1 | inconclusive: 31.6 µM [inhibitor, partial curve, poor fit]
Cc1ccccc1S(=O)(=O)N1[C@@H](c2ccccc2)C(C(=O)O)=CC[C@H]1c1ccc(Cl)cc1 | inactive
CCCc1cc(-c2nc(N)ncc2-c2csc(C)n2)c(O)cc1OC | inactive
CCCNCC1C(Oc2ccc(Cl)cc2Cl)C(=O)N1c1cccc(C)c1C (centres undefined) | inconclusive: 11.2 µM [inhibitor, single point]
Nc1c(Cl)ncnc1N/N=C/c1ccnc2ccccc12 | inactive
Cc1cccc(NC(=O)CNC(=O)CCNC(=O)c2ccc(C(C)(C)C)cc2)c1C | inconclusive: 5.62 µM [inhibitor, partial curve]
CN(C)C(CNC(=O)c1ccc(Cl)c(S(=O)(=O)N2CCCCCC2)c1)c1ccccc1 (centres undefined) | inconclusive: 5.01 µM [inhibitor, partial curve, poor fit]
CCOc1ccccc1OCC(=O)OCc1csc(CC(=O)Nc2ccccc2C)n1 | inconclusive: 12.6 µM [inhibitor, single point]
CCOc1ccc(CCN2C(=O)C(=O)N([C@@H](CC(C)C)CN3CCC[C@@H]3CN3C(=O)C(=O)NC[C@@H]3Cc3ccccc3)C[C@@H]2CC(C)C)cc1 | inconclusive: 11.2 µM [inhibitor, single point]
Cc1cc(S(=O)(=O)N2CCOCC2)ccc1OCC(=O)Nc1ccccc1F | inactive
COc1ccc(Cn2nnc(C(=O)Nc3ccc4c(c3)OCCO4)c2N)cc1Br | inconclusive: 5.62 µM [inhibitor, partial curve]
C[C@H](O)[C@@H]1C(=O)N2CCc3ccc(-c4cccc(F)c4)cc3[C@@H]2C[C@@H]1N(C)C(=O)C(C)(C)C | inactive
CC(=O)NC12CC3CC(C1)CC(C(=O)N1CCN(S(=O)(=O)c4cccc(C(F)(F)F)c4)CC1)(C3)C2 | inconclusive: 28.2 µM [inhibitor, single point]
Cc1ccc2nc3c(cc(C(=O)NCCN4CCOCC4)c(=N)n3CCCN3CCOCC3)c(=O)n2c1 | inactive
CCOC(=O)c1sc(N2C(=O)C(O)=C(C(=O)c3ccco3)C2c2ccc([N+](=O)[O-])cc2)nc1C (centres undefined) | inactive
Cc1ccc(-c2nc3ccccn3c2Nc2ccccc2)o1 | inactive
COc1ccc(OC)c(CNC(=O)C2CCC(=O)N(CCCN3CCCC3=O)C2)c1 (centres undefined) | inconclusive: 2.24 µM [inhibitor, full curve, poor fit]
COc1ccc(/C=C2\CCC/C(=C\C=N\N(C)C)C2=O)cc1 | active: 11.2 µM

Compound | Potency
COc1ccc(C(=O)/C=C/c2cccnc2)c(OC)c1 | inconclusive: 14.1 µM [inhibitor, single point]
CCOC(=O)N1CCN(C(=O)CSc2nc(C)nc3c2c(=O)n(C)c(=O)n3C)CC1 | inconclusive: 0.355 µM [inhibitor, partial curve, poor fit]
O=[N+]([O-])c1cc([N+](=O)[O-])c2nonc2c1Nc1ccc(O)cc1 | active: 11.2 µM
COc1ccc(-c2nc(NC(C)=O)sc2-c2ccccc2)cc1 | inactive
Cc1sc(NC(=S)Nc2ccc(F)cc2)c(C(N)=O)c1C | inactive
CCOC(=O)c1ccc(-c2c(-c3cc(OC)c(OC)c(OC)c3)noc2C)cc1F | inconclusive: 0.398 µM [inhibitor, full curve, poor fit]
CCn1c(=S)[nH]c2sc3c(c2c1=O)CCCCC3 | inconclusive: 2.24 µM [inhibitor, full curve]
Cc1ccc(C(=O)/C=C/c2cc(Br)cc(Br)c2O)o1 | inconclusive: 7.08 µM [inhibitor, single point]
O=c1c2cc(F)ccc2sn1-c1ccccc1 | inconclusive: 8.91 µM [inhibitor, single point]
C/C(=N\NC(=O)c1ccc2c(c1)OCO2)c1cccnc1 | inconclusive: 12.6 µM [inhibitor, partial curve, poor fit]
Cc1ccc(-c2cnn3c(N4CCOCC4)cc(C)nc23)cc1 | inactive
COC(=O)Cc1c(C)c2ccc(OC(C)C)cc2oc1=O | inconclusive: 12.6 µM [inhibitor, single point]
CCN(CCCNC(=O)CCCOc1cc(=O)n(C)c2ccccc12)Cc1ccccc1 | inconclusive: 11.2 µM [inhibitor, single point]
COCCN(Cc1cc2cc(C)cc(C)c2nc1Cl)C(=O)Nc1ccccc1 | inconclusive: 3.55 µM [inhibitor, partial curve, poor fit]
COC(=O)c1c(NC(NC(=O)C(C)(C)C)C(Cl)(Cl)Cl)sc2c1CCC2 (centres undefined) | inactive
CCOc1ccc2nc(N(CCN(CC)CC)C(=O)/C=C/c3cccs3)sc2c1 | inactive
O=C(Nc1ccccc1)c1ccc2ccccc2n1 | inconclusive: 8.91 µM [inhibitor, partial curve, poor fit]
Nc1nc(F)nc2c1ncn2[C@@H]1O[C@H](CO)[C@@H](O)[C@@H]1O | inconclusive: 8.91 µM [inhibitor, partial curve, poor fit]
Cc1ccc2c(c1)COc1c3ccc(C(=O)O)cc3nn1-2 | inconclusive: 6.31 µM [inhibitor, full curve, poor fit]
N#CC1=C(SCC(=O)Nc2ccccc2)NC(=O)CC1c1ccco1 (centres undefined) | inconclusive: 3.16 µM [inhibitor, partial curve, poor fit]
S=c1[nH]nc(-c2ccn[nH]2)n1-c1ccccc1Cl | inactive
CC(C)NC(=O)C1CCN(C(=O)c2cc3sccc3n2Cc2ccc(F)cc2)CC1 | inconclusive: 28.2 µM [inhibitor, single point]
COc1cc(NC(=O)C2Cc3ccccc3CN2S(C)(=O)=O)cc(OC)c1 (centres undefined) | inactive

Compound | Potency
CCCCCCCCCCCCCCCCn1cc[n+](C)c1 | inconclusive: 1.58 µM [inhibitor, full curve, poor fit]
CCN(CC)C(=O)c1sc(N)c(C(=O)OC(C)C)c1C | inactive
O=C(O)CCNC(=O)/C(=C/C=C/c1ccccc1)NC(=O)c1ccccc1 | inconclusive: 2 µM [inhibitor, full curve, poor fit]
CC(C)C(=O)NC(c1cccc([N+](=O)[O-])c1)c1ccc2cccnc2c1O (centres undefined) | inactive
CCOC(=O)C1=C(C)N(c2ccccc2)C(=O)/C1=C\c1ccc(O)c(OC)c1 | inactive
COc1ccc2c(c1OC)C(=O)N1C2SC[C@H]1C(=O)NC1CC(C)(C)NC(C)(C)C1 (some centres undefined) | inactive
CC1(C)CC(NC(=O)C2CCN(S(=O)(=O)c3ccc(Cl)c(C(F)(F)F)c3)CC2)CC(C)(C)N1 | inactive
O=[N+]([O-])c1ccc(NN=Cc2ccccc2)nc1 | inactive
Cc1nnc(N/N=C/c2ccc(Br)cc2)n1N | inconclusive: 5.62 µM [inhibitor, partial curve, poor fit]
COc1ccccc1C(C)NC(=O)C1CCN(S(=O)(=O)c2cccs2)CC1 (centres undefined) | inconclusive: 22.4 µM [inhibitor, partial curve, poor fit]
O=C1c2ccccc2NC(c2ccc(-c3ccccc3F)o2)N1O (centres undefined) | inconclusive: 11.2 µM [inhibitor, single point]
CN(Cc1ccccc1)C(=O)C1CCN(S(C)(=O)=O)CC1 | inactive
CC(CCN1C(Nc2ccccc2)=NC[C@@H]1C)c1ccccc1 (some centres undefined) | inactive
Cc1ncc(CO)c(CNc2ccc(-c3nc4ccccc4[nH]3)cc2)c1O | inconclusive: 12.6 µM [inhibitor, single point]
COc1ccc(-c2cc(C(=O)c3c(N)n(C)c(=O)n(C)c3=O)c3ccccc3n2)cc1 | active: 1.41 µM
Cc1cccc2sc(NNC(=O)c3ccc(S(=O)(=O)N4CCc5ccccc5C4)cc3)nc12 | inconclusive: 7.94 µM [inhibitor, partial curve, poor fit]
O=C1c2ccccc2NC(c2ccc(-c3ccc(C(F)(F)F)cc3)o2)N1O (centres undefined) | inconclusive: 10 µM [inhibitor, single point]
COc1ccc(OC)c(Nc2nc(-c3c(C)nc4ncccn34)cs2)c1 | inconclusive: 5.62 µM [inhibitor, partial curve, poor fit]
O=c1[nH]nc(Cc2ncc(C(F)(F)F)cc2Cl)c2ccccc12 | inactive
Cn1c(C(=O)NCc2ccco2)cc2c(=O)[nH]c3ccccc3c21 | inactive
Nc1nc(=S)c2ncn([C@@H]3O[C@H](CO)[C@@H](O)[C@H]3O)c2[nH]1 | inconclusive: 0.0071 µM [inhibitor, full curve, poor fit]
COc1cccc(NC(=O)c2ccc3nc(C)sc3c2)c1 | inconclusive: 11.2 µM [inhibitor, partial curve, poor fit]
CC1=NN(C(N)=S)C(=O)C1N=Nc1c(Cl)cc([N+](=O)[O-])cc1Cl (centres undefined) | inactive

Reformatted tab-delimited: part of the list above.
Compound	Potency
COc1cc(NC(=O)C2Cc3ccccc3CN2S(C)(=O)=O)cc(OC)c1 (centres undefined)	inactive
CCCCCCCCCCCCCCCCn1cc[n+](C)c1	inconclusive: 1.58 µM [inhibitor, full curve, poor fit]
CCN(CC)C(=O)c1sc(N)c(C(=O)OC(C)C)c1C	inactive
CC(C)C(=O)NC(c1cccc([N+](=O)[O-])c1)c1ccc2cccnc2c1O (centres undefined)	inactive
CCOC(=O)C1=C(C)N(c2ccccc2)C(=O)/C1=C\c1ccc(O)c(OC)c1	inactive
COc1ccc2c(c1OC)C(=O)N1C2SC[C@H]1C(=O)NC1CC(C)(C)NC(C)(C)C1 (some centres undefined)	inactive
CC1(C)CC(NC(=O)C2CCN(S(=O)(=O)c3ccc(Cl)c(C(F)(F)F)c3)CC2)CC(C)(C)N1	inactive
O=[N+]([O-])c1ccc(NN=Cc2ccccc2)nc1	inactive
COc1ccccc1C(C)NC(=O)C1CCN(S(=O)(=O)c2cccs2)CC1 (centres undefined)	inconclusive: 22.4 µM [inhibitor, partial curve, poor fit]
O=C1c2ccccc2NC(c2ccc(-c3ccccc3F)o2)N1O (centres undefined)	inconclusive: 11.2 µM [inhibitor, single point]
CN(Cc1ccccc1)C(=O)C1CCN(S(C)(=O)=O)CC1	inactive
CC(CCN1C(Nc2ccccc2)=NC[C@@H]1C)c1ccccc1 (some centres undefined)	inactive
Cc1ncc(CO)c(CNc2ccc(-c3nc4ccccc4[nH]3)cc2)c1O	inconclusive: 12.6 µM [inhibitor, single point]
COc1ccc(-c2cc(C(=O)c3c(N)n(C)c(=O)n(C)c3=O)c3ccccc3n2)cc1	active: 1.41 µM
Cc1cccc2sc(NNC(=O)c3ccc(S(=O)(=O)N4CCc5ccccc5C4)cc3)nc12	inconclusive: 7.94 µM [inhibitor, partial curve, poor fit]
COc1ccc(OC)c(Nc2nc(-c3c(C)nc4ncccn34)cs2)c1	inconclusive: 5.62 µM [inhibitor, partial curve, poor fit]
O=c1[nH]nc(Cc2ncc(C(F)(F)F)cc2Cl)c2ccccc12	inactive
Cn1c(C(=O)NCc2ccco2)cc2c(=O)[nH]c3ccccc3c21	inactive
Nc1nc(=S)c2ncn([C@@H]3O[C@H](CO)[C@@H](O)[C@H]3O)c2[nH]1	inconclusive: 0.0071 µM [inhibitor, full curve, poor fit]
COc1cccc(NC(=O)c2ccc3nc(C)sc3c2)c1	inconclusive: 11.2 µM [inhibitor, partial curve, poor fit]
CC1=NN(C(N)=S)C(=O)C1N=Nc1c(Cl)cc([N+](=O)[O-])cc1Cl (centres undefined)	inactive

Quoted from the results shown (two entries):
Compound | Potency
CCOc1ccc(CCN2C(=O)C(=O)N([C@@H](CC(C)C)CN3CCC[C@@H]3CN3C(=O)C(=O)NC[C@@H]3Cc3ccccc3)C[C@@H]2CC(C)C)cc1 | inconclusive: 11.2 µM [inhibitor, single point]
Cc1cc(S(=O)(=O)N2CCOCC2)ccc1OCC(=O)Nc1ccccc1F | inactive
